Source: patent US20170168078A1
These are yes or no findings as the source states them, for the method shown.

Target: purified recombinant human FRΔ (human)
Assay: western blot of 0.5 µg purified protein per lane, reduced and nonreduced, SDS-PAGE

B1: Monoclonal antibody 26B3.F2 (antibody, mouse IgG1, V domains shown)
VH: GPELVKPGASVKISCKASDYSFTGYFMNWVMQSHGKSLEWIGRIFPYNGDTFYNQKFKGRATLTVDKSSSTAHMELRSLASEDSAVYFCARGTHYFDYWGQGTTLTVSS
VL: PASLSASVGETVTITCRTSENIFSYLAWYQQKQGISPQLLVYNAKTLAEGVPSRFSGSGSGTQFSLKINSLQPEDFGSYYCQHHYAFPWTFGGGSKLEIKR
  binding: no binding (tested: 1 µg/mL)

B2: Monoclonal antibody 9F3.H9.H3.H3.B5.G2 (antibody, mouse IgG2a, V domains shown)
VH: ESGPGLVRPSQSLSLTCSVTGYSITSGYYWNWIRQFPGSRLEWMGYIKSDGSNNYNPSLKNRISITRDTSKNQFFLKLNSVTTEDTATYFCTREWKAMDYWGQGTSVTVSS
VL: PAIMSASPGEKVTMTCRASSTVSYSYLHWYQQKSGASPQLWIYGTSNLASGVPARFSGSGSGTSYSLTISSVEAEDAATYYCQQYSGYPLTFGAGTKLELKR
  binding: no binding (tested: 1 µg/mL)

B3: Monoclonal antibody 19D4.B7 (antibody, mouse IgG2a, V domains shown)
VH: GAELVKPGASVKLSCTASGFNIKHPYMHWVKQRPDQGLEWIGRIDPANGNTKYDPKFQGKATITADTSSNTAYLQLSSLTSEDTAVYYCGREEVADYTMDYWGQGTSVTVSS
VL: PASLAVSLGQRATISCRASESVDTYGNNFIHWYQQKPGQPPKLLIYLASNLESGVPARFSGSGSRTDFTLTIDPVEADDAATYYCQQNNGDPWTFGGGTKLEIKR
  binding: no binding (tested: 1 µg/mL)

B4: Monoclonal antibody 24F12.B1 (antibody, mouse IgG1, V domains shown)
VH: SGGGLVRPGGSLKLSCAASGFTFSSYAMSWVRQSPEKRLEWVAEIGSGGSYTYYPDTVTGRFTISRDNAKSTLYLEMSSLRSEDTAIYYCARETTAGYFDYWGQGTTLTVSS
VL: TSSLSASLGDRVTISCSASQGINNFLNWYQQKPDGTVKLLIYYTSSLHSGVPSRFSGSGSGTDYSLTISNLEPEDIAIYYCQHFSKLPWTFGGGTKLEIKR
  binding: no binding (tested: 1 µg/mL)
